From PubChem BioAssay AID651640 (Broad Institute, 2012)
Hit rate of the full screen: of about 350,000 compounds, about 6,000 (1.7%) were called active. The inconclusive results got no clear call from the source; some entries with a clear call stand among them for comparison. No stated cut-off is given here; in the data, active means CPE inhibition above about 20% (passing the limit was not always enough); inconclusive means no clear call, values can overlap the other calls; tested in BHK-21 cells.

assay: protection of cells from dengue 2 killing – plate reader, single concentration, primary screen (AID 651640); details: DENV2-infected cells, cytopathic effect rescue, at 9.99 µM, hits give high values;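 further: 0% = median of neutral control wells and 100% = median of positive control wells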

Row | SMILES | CPE inhibition
1 | O=C(Nc1cccc(Br)c1)c1ccc(CN2CCc3ccccc3C2)cc1 | inactive: 6.67%
2 | C[C@H](CO)N1C[C@H](C)[C@@H](CN(C)Cc2cncnc2)Oc2cc(C#CC3CCCC3)ccc2S1(=O)=O | inactive: 11.2%
3 | C/C=C(\C)C(=O)N1CC2(CC(c3cccc(NC(=O)CCCCC)c3)=NO2)C[C@@H]1C(N)=O (some centres not stated) | active: 85.8%
4 | CN(C)CC#Cc1ccc([C@@H]2[C@H]3CN(C(=O)c4cccc(F)c4)CC(=O)N3[C@H]2CO)cc1 | inactive: -2.19%
5 | C[C@H]1CN([C@@H](C)CO)C(=O)c2cccc(NC(=O)NC3CCCCC3)c2O[C@@H]1CN(C)S(=O)(=O)c1ccc(Cl)cc1 | active: 26.8%
6 | Cc1ccc(NC(=O)CSC(C)C(=O)OCC(=O)N2CCN(C(=O)c3ccco3)CC2)cc1 (configuration not stated) | active: 85.9%
7 | O=C(Cc1ccccn1)NCC[C@H]1CC[C@@H](NC(=O)c2ccccc2F)[C@@H](CO)O1 | active: 40.2%
8 | Cc1ccc(S(=O)(=O)N2CCN(CCOc3c(Cl)cccc3Cl)CC2)cc1C | inconclusive: 59%
9 | COc1cccc(-c2cnc3c(c2)C(=O)N([C@H](C)CO)C[C@H](C)[C@@H](CN(C)Cc2ccccc2)O3)c1 | inconclusive: 35.1%
10 | C[C@@H]1CN([C@H](C)CO)S(=O)(=O)c2ccc(-c3ccccc3F)cc2O[C@H]1CN(C)Cc1ccncc1 | active: 29.4%
11 | CC(=O)c1cccc(NC(=O)COC(=O)c2ccc(S(C)(=O)=O)c([N+](=O)[O-])c2)c1 | inactive: -8.73%
12 | O=C(CC1CC1)N1CC[C@@H]2[C@H](CO)Nc3ccc(-c4ccccc4)cc3[C@@H]21 | inconclusive: 21.9%
13 | CCCc1c(C(=O)N/N=C/c2c[nH]c3ccccc23)nnn1-c1nonc1N | inconclusive: 21.7%
14 | CCN(CC)c1ccc(/C=C(/C#N)C(=O)NC(C)C)o1 | inconclusive: 38.7%
15 | CC(C)(C)S(=O)N1Cc2cc(C(=O)NCc3ccc4c(c3)OCO4)nc(-c3cccc(C#CCC4CCCC4)c3)c2[C@@H]1CCO (some centres not stated) | active: 49.4%
16 | C[C@@H]1CN([C@H](C)CO)C(=O)c2cccc(NC(=O)C3CCOCC3)c2O[C@@H]1CN(C)C(=O)Nc1ccc(C(F)(F)F)cc1 | inactive: -4.12%
17 | CN1CCN(C(=O)C[C@H]2CC[C@H](NC(=O)Nc3ccccc3F)[C@@H](CO)O2)CC1 | inactive: 3.52%
18 | COc1ccc2oc(C(=O)N3CCc4ccccc43)c(C)c2c1 | inactive: 17.8%
19 | CCCC(=O)N1CCC2(CC1)CN(C(=O)Nc1ccc(F)cc1)[C@H](CO)c1c2c2ccc(OC)cc2n1C | inconclusive: 63.2%

Reprinted at random: two records from the list.
Row | SMILES | CPE inhibition
3 | C/C=C(\C)C(=O)N1CC2(CC(c3cccc(NC(=O)CCCCC)c3)=NO2)C[C@@H]1C(N)=O (some centres not stated) | active: 85.8%
4 | CN(C)CC#Cc1ccc([C@@H]2[C@H]3CN(C(=O)c4cccc(F)c4)CC(=O)N3[C@H]2CO)cc1 | inactive: -2.19%

Continued.

Row | SMILES | CPE inhibition
20 | COc1ccccc1N1CCN(Cc2cc3c(cc2Br)OCCO3)CC1 | inactive: -5.51%
21 | O=C(c1ccccc1)C12COc3ccccc3C1ON=C2c1ccccc1 (configuration not stated) | inconclusive: 56.1%
22 | CC1CCCCN1C(=O)CCc1nnc(Cc2c[nH]c3ccccc23)o1 (configuration not stated) | inactive: 3.63%
23 | O=C(Nc1nnc([C@@H]2C[C@H](O)[C@@H](CO)O2)s1)c1cccc(Oc2ccccc2)c1 | inconclusive: 35%
24 | Cc1ccc(Nc2nnc(SCc3nc4ccccc4c(=O)[nH]3)s2)cc1 | inactive: 3.61%
25 | NC(=S)N/N=C/c1ccc(-c2ccc([N+](=O)[O-])cc2)o1 | inconclusive: 31.8%
26 | COc1ccc(CCNC(=O)CCn2c(=O)c3cccn3c3cccnc32)cc1OC | inactive: 13%
27 | C[C@@H]1CN([C@H](C)CO)C(=O)c2cccc(NS(=O)(=O)c3ccc(F)cc3)c2O[C@@H]1CN(C)S(=O)(=O)c1cccs1 | inactive: 11.8%
28 | Cc1ccc(-c2nc3c4ccccc4ccn3c2Cc2ccsc2)cc1 | inconclusive: 72.7%
29 | C[C@H]1CN([C@@H](C)CO)S(=O)(=O)c2ccc(C3=CCCC3)cc2O[C@H]1CN(C)C(=O)C1CCC1 | active: 20.9%
30 | COc1cc(/C=C(/NC(=O)c2ccc(Cl)cc2Cl)C(=O)O)cc(OC)c1OC | inconclusive: 73.8%
31 | Cn1nc(C(=O)Nc2ccc(Cl)cc2)cc1C(=O)Nc1ccc(Cl)cc1 | inactive: 6.21%
32 | CCn1c(=S)sc2c(=O)n(CC(=O)Nc3ccc(OC)cc3)c(C)nc21 | inconclusive: 30.7%
33 | CC(Oc1ccc2c(-c3ccccc3)cc(=O)oc2c1)C(=O)NCCCN1CCOCC1 (configuration not stated) | inactive: 3.87%
34 | O=C1CN(C(=O)COc2ccccc2)c2ccccc2N1 | inconclusive: 48.9%
35 | COC(=O)C[C@H]1C=C[C@H](NC(=O)Nc2ccccc2F)[C@@H](CO)O1 | inconclusive: 24.5%
36 | CC(=O)c1c(C)nc2ccc([N+](=O)[O-])cc2c1-c1ccccc1 | inconclusive: 25.6%
37 | C[C@@H]1CCCCO[C@H](CN(C)Cc2ccc3c(c2)OCO3)[C@@H](C)CN([C@@H](C)CO)C(=O)c2cc(NC(=O)CCC(F)(F)F)ccc2O1 | inconclusive: 31.9%
